Results are given in words; binding and its absence hold for the method and conditions named. Binding seen in cells or lysates may run through a third protein. Some entries that bind do so weakly or less than the wild type. For some of these results: Sequences can lack the tags named with a protein.

Sequences of proteins named here, by UniProt entry; tags and fusion partners are left off. A change or cut given only in a name is not applied to a line headed by its entry.
UniProt P62140: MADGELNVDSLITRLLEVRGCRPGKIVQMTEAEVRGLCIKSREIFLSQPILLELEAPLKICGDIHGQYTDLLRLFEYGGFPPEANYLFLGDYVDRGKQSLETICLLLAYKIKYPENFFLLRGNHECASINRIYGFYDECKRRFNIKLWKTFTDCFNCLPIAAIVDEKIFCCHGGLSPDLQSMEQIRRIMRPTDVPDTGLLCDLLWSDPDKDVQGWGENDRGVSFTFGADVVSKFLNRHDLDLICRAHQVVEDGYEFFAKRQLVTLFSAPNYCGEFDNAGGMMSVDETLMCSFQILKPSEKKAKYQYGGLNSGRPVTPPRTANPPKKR
UniProt P35240: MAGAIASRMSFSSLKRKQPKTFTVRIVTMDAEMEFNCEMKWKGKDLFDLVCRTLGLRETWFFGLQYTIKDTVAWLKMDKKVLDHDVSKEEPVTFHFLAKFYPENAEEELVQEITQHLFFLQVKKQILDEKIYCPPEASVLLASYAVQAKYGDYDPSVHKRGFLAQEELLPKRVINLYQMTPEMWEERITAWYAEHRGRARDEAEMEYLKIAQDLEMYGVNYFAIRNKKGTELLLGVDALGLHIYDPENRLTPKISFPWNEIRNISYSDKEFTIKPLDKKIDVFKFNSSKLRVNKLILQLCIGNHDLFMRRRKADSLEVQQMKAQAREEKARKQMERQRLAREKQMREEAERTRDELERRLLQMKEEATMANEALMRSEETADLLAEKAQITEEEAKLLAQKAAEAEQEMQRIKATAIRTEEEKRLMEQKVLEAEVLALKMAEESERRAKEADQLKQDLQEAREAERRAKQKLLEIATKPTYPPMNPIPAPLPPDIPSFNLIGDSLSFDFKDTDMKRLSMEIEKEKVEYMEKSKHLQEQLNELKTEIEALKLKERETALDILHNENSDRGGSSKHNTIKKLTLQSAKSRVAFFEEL
UniProt P62136: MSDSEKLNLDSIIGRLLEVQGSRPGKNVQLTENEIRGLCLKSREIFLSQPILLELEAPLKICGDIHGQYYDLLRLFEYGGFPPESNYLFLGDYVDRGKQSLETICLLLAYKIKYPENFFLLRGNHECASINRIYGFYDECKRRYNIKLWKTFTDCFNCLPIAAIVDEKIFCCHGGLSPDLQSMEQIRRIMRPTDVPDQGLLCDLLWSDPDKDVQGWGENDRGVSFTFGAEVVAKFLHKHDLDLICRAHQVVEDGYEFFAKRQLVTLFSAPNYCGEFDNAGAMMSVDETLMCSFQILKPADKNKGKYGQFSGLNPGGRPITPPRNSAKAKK

Test [1] concerns the target T1, GST-tagged bacterially expressed TIMAP protein (human) (UniProt Q96T49).
T1 sequence: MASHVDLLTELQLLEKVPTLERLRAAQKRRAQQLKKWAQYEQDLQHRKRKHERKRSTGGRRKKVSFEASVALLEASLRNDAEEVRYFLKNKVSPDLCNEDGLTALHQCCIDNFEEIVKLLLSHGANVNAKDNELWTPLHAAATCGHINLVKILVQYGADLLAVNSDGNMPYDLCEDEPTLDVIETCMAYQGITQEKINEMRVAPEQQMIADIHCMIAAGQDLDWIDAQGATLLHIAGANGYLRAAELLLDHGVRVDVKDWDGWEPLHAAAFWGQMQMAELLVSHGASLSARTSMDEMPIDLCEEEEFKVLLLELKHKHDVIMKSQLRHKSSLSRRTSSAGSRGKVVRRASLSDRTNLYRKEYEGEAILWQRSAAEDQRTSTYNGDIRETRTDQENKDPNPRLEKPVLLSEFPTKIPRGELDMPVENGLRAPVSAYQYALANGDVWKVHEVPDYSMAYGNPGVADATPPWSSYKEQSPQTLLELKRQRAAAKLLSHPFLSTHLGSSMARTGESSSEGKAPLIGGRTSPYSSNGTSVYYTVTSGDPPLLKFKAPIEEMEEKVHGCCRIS
Kind of test: pull-down; GST-TIMAP immobilised on glutathione Sepharose 4B beads, incubated with SH-SY5Y cell lysate (50 mM Tris-HCl pH 7.5, 0.2% 2-mercaptoethanol, 0.1% Tween 20, protease inhibitors); Western blot; only the target purified.

Test [2] has as its target T2, TIMAP (TGF-β-inhibited membrane associated protein) (human (endogenous in SH-SY5Y)) (UniProt Q96T49).
T2 sequence: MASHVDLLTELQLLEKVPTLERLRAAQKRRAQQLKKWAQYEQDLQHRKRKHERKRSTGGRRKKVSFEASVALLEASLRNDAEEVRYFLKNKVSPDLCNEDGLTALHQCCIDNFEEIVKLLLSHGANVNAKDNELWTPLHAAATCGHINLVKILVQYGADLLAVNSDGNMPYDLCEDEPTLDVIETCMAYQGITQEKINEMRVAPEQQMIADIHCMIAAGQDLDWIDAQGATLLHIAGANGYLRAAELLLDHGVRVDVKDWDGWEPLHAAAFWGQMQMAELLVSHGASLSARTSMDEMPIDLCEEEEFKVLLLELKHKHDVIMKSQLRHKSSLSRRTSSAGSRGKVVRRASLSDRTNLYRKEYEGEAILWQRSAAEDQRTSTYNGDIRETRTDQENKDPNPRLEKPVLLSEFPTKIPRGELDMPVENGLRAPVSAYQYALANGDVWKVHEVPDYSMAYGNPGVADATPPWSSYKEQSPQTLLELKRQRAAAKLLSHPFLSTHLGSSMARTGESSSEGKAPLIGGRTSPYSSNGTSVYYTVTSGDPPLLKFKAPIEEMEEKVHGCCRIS
Kind of test: co-IP; endogenous TIMAP or PP1cδ immunoprecipitated with specific antibodies from SH-SY5Y cell lysates; Western blot for TIMAP, PP1cδ and PP1cα; rabbit IgG as negative control. (A western blot detects proteins with antibodies after separation by electrophoresis.)

For test [3], the target named is protein phosphatase 1 catalytic subunit, δ isoform (PP1cδ) (human (endogenous in SH-SY5Y)) (UniProt P62140). The description is as above.

On to “merlin (neurofibromin 2; NF2) (from UniProt P35240 1-595)”, for which the binding entry in test [1] is on record as “binds”. As for “protein phosphatase 1 catalytic subunit, δ isoform (PP1cδ) (from UniProt P62140 1-327) (enzyme)”, the binding result in test [2] is on record as “binds”. For the molecule “protein phosphatase 1 catalytic subunit, α isoform (PP1cα) (from UniProt P62136 1-330) (enzyme)”, in test [2], the binding result is recorded as “no binding”.

B1: TIMAP (TGF-β-inhibited membrane associated protein) (protein, UniProt Q96T49 1-567)
chain: MASHVDLLTELQLLEKVPTLERLRAAQKRRAQQLKKWAQYEQDLQHRKRKHERKRSTGGRRKKVSFEASVALLEASLRNDAEEVRYFLKNKVSPDLCNEDGLTALHQCCIDNFEEIVKLLLSHGANVNAKDNELWTPLHAAATCGHINLVKILVQYGADLLAVNSDGNMPYDLCEDEPTLDVIETCMAYQGITQEKINEMRVAPEQQMIADIHCMIAAGQDLDWIDAQGATLLHIAGANGYLRAAELLLDHGVRVDVKDWDGWEPLHAAAFWGQMQMAELLVSHGASLSARTSMDEMPIDLCEEEEFKVLLLELKHKHDVIMKSQLRHKSSLSRRTSSAGSRGKVVRRASLSDRTNLYRKEYEGEAILWQRSAAEDQRTSTYNGDIRETRTDQENKDPNPRLEKPVLLSEFPTKIPRGELDMPVENGLRAPVSAYQYALANGDVWKVHEVPDYSMAYGNPGVADATPPWSSYKEQSPQTLLELKRQRAAAKLLSHPFLSTHLGSSMARTGESSSEGKAPLIGGRTSPYSSNGTSVYYTVTSGDPPLLKFKAPIEEMEEKVHGCCRIS
Take B1: the binding result in test [3] is on record as “binds”.

The values above are taken from article PMC10744335.
